The record followed here is patent US20120269817A1.

B1: TP-3H2 Fab (Fab, V domains shown)
VH: QVQLVESGGGLVQPGGSLRLSCAASGFTFNSYYMSWVRQAPGKGLEWVSNISSSGSNTNYADSVKGRFTISRDNSKNTLYLQMNSLRAEDTAVYYCARVHYGFDFWGQGTLVTVSS
VL: DIELTQPPSVSVAPGQTARISCSGDKLGKYYAYWYQQKPGQAPVLVIYGDSKRPSGIPERFSGSNSGNTATLTISGTQAEDEADYYCSSAAFGSTVFGGGTKLTVLG
B2: TP-4A9 Fab (Fab, V domains shown)
VH: QVQLVESGGGLVQPGGSLRLSCAASGFTFSSYGMSWVRQAPGKGLEWVSLISGVSSSTYYADSVKGRFTISRDNSKNTLYLQMNSLRAEDTAVYYCARSYLGYFDVWGQGTLVTVSS
VL: DIELTQPPSVSVAPGQTARISCSGDALGKYYASWYQQKPGQAPVLVIYGDNKRPSGIPERFSGSNSGNTATLTISGTQAEDEADYYCQSYTTRSLVFGGGTKLTVLG
B3: TP-4A7 Fab (Fab, V domains shown)
VH: QVQLVESGGGLVQPGGSLRLSCAASGFTFRNYAMNWVRQAPGKGLEWVSVISGSSSYTYYADSVKGRFTISRDNSKNTLYLQMNSLRAEDTAVYYCARADLPYMVFDYWGQGTLVTVSS
VL: DIELTQPPSVSVAPGQTARISCSGDALGSKFAHWYQQKPGQAPVLVIYDDSERPSGIPERFSGSNSGNTATLTISGTQAEDEADYYCQAYDSGLLYVFGGGTKLTVLG

No constants are given. Whether binding was seen depends on the method and setting.

This assay concerns the target lysozyme. Briefly: ELISA.
Consider B1, for which the binding result is recorded as “no binding”. The entry for B2 is “no binding”; for B3 it is “no binding”.
